PubChem BioAssay AID1224827, NIAID, 2016

- Screen: 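Confirm genes whose knock-down changes LPS-driven TNF promoter activity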 (follow-up of hits)
- Cells: RAW264.7 G9 mouse macrophage reporter clone
- Knock-down reagent: single siRNA against mouse genes, 100 nM siRNA
- Time to read-out: siRNA for 2 days, then LPS about 16 h
- Challenge: bacterial lipopolysaccharide (LPS), 10 ng/ml, cells fixed after overnight (about 16 h) stimulation
- Measurement: 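TNF promoter reporter red fluorescence in nuclei, background subtracted, normalised per plate and to non-targeting control siRNA, as z-scores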
- Direction: TNF reporter z-score, mean: higher = stronger Tnf promoter reporter signal; gene median z, three same-vendor siRNAs: higher = stronger Tnf reporter signal for the gene
- Call rule: 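Active siRNA: replicate-mean z-score of 2 or more, or -2 or less; no calls for control wells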
This is one part, drawn at random, of about 3,800 reagents tested. Of all reagents, about 2,200 (57%) are marked active. 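Active means a strong reporter change in either direction; calls are per siRNA, not per gene; qiagen siRNAs gave weaker effects.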 Entries without a mark were called inactive. The numbers tell different reagents against one gene apart. Further read-outs or replicates are left out here.

gene	reagent	TNF reporter z-score, mean	gene median z, three same-vendor siRNAs
Fam110a (GeneID 73847)	1	-2.2 (active)	-2.91
Fam110a (GeneID 73847)	2	-2.51 (active)	-2.91
Fam110a (GeneID 73847)	3	-4.52 (active)	-2.91
Fam110a (GeneID 73847)	4	2.66 (active)	0.623
Fam110a (GeneID 73847)	5	0.607	0.623
Fam110a (GeneID 73847)	6	-0.078	0.623
Ppm1a (GeneID 19042)	1	0.309	-1.26
Ppm1a (GeneID 19042)	2	-1.26	-1.26
Ppm1a (GeneID 19042)	3	-4.99 (active)	-1.26
Ppm1a (GeneID 19042)	4	3.49 (active)	0.746
Ppm1a (GeneID 19042)	5	0.988	0.746
Ppm1a (GeneID 19042)	6	-3.52 (active)	0.746
Clta (GeneID 12757)	1	-0.493	-2.36
Clta (GeneID 12757)	2	-1.82	-2.36
Clta (GeneID 12757)	3	-2.9 (active)	-2.36
Clta (GeneID 12757)	4	4.55 (active)	0.722
Clta (GeneID 12757)	5	2.53 (active)	0.722
Clta (GeneID 12757)	6	-1.34	0.722
Pex13 (GeneID 72129)	1	-0.934	-2.09
Pex13 (GeneID 72129)	2	-2.43 (active)	-2.09
Pex13 (GeneID 72129)	3	-3.07 (active)	-2.09
Pex13 (GeneID 72129)	4	2.1 (active)	1.11
Pex13 (GeneID 72129)	5	0.897	1.11
Pex13 (GeneID 72129)	6	1.06	1.11
Rlim (GeneID 19820)	1	3.24 (active)	-3.85
Rlim (GeneID 19820)	2	-4.23 (active)	-3.85
Rlim (GeneID 19820)	3	-4.32 (active)	-3.85
Rlim (GeneID 19820)	4	-0.794	-0.631
Rlim (GeneID 19820)	5	-0.306	-0.631
Rlim (GeneID 19820)	6	-1.3	-0.631
Prmt5 (GeneID 27374)	1	-2.21 (active)	-2.49
Prmt5 (GeneID 27374)	2	-2.93 (active)	-2.49
Prmt5 (GeneID 27374)	3	-3.22 (active)	-2.49
Prmt5 (GeneID 27374)	4	4.16 (active)	0.736
Prmt5 (GeneID 27374)	5	2.78 (active)	0.736
Prmt5 (GeneID 27374)	6	0.623	0.736
Mrpl51 (GeneID 66493)	1	2.02 (active)	-2.24
Mrpl51 (GeneID 66493)	2	-2.24 (active)	-2.24
Mrpl51 (GeneID 66493)	3	-4.08 (active)	-2.24
Mrpl51 (GeneID 66493)	4	4.7 (active)	1.77
Mrpl51 (GeneID 66493)	5	3.13 (active)	1.77
Mrpl51 (GeneID 66493)	6	0.785	1.77
Cpt1b (GeneID 12895)	1	-1.77	-3.94
Cpt1b (GeneID 12895)	2	-4.36 (active)	-3.94
Cpt1b (GeneID 12895)	3	-5.31 (active)	-3.94
Cpt1b (GeneID 12895)	4	1.66	1.66
Cpt1b (GeneID 12895)	5	1.74	1.66
Cpt1b (GeneID 12895)	6	1.46	1.66
Rdh1 (GeneID 107605)	1	2.07 (active)	-0.992
Rdh1 (GeneID 107605)	2	-0.992	-0.992
Rdh1 (GeneID 107605)	3	-4.09 (active)	-0.992
Rdh1 (GeneID 107605)	4	3.12 (active)	0.437
Rdh1 (GeneID 107605)	5	0.974	0.437
Rdh1 (GeneID 107605)	6	-2.08 (active)	0.437
Slc9a8 (GeneID 77031)	1	1.74	-1.91
Slc9a8 (GeneID 77031)	2	-1.91	-1.91
Slc9a8 (GeneID 77031)	3	-3.76 (active)	-1.91
Slc9a8 (GeneID 77031)	4	2.78 (active)	0.778
Slc9a8 (GeneID 77031)	5	2.79 (active)	0.778
Slc9a8 (GeneID 77031)	6	-0.268	0.778

Copied from the listing (5 entries):
gene	reagent	TNF reporter z-score, mean	gene median z, three same-vendor siRNAs
Ppm1a (GeneID 19042)	3	-4.99 (active)	-1.26
Ppm1a (GeneID 19042)	4	3.49 (active)	0.746
Ppm1a (GeneID 19042)	5	0.988	0.746
Ppm1a (GeneID 19042)	6	-3.52 (active)	0.746
Clta (GeneID 12757)	1	-0.493	-2.36
